Measured values: patent publication US20200057058A1

How the values were obtained:
[1] = target: monomeric streptavidin variant mSA2; test: fluorescent binding assay, labeled mSA2 on monolayer
[2] = target: monomeric streptavidin variant mSA2; test: fluorescent time-course assay, labeled mSA2 on monolayer
[3] = target: monomeric streptavidin variant mSA2; test: fluorescent binding assay, labeled mSA2 in PBS on the monolayer, 4 h exposure
[4] = target: monomeric streptavidin variant mSA2; test: fluorescent binding assay, labeled mSA2 in 50% urine on the monolayer, 4 h exposure
[5] = target: monomeric streptavidin variant mSA2; test: fluorescent diffusion assay: monolayer exposed to 800 nM labeled mSA2 for 0.5-8 h, rinsed
[6] = target: monomeric streptavidin variant mSA2; test: fluorescent binding assay, labeled mSA2 in 50% blood serum on the monolayer, 4 h exposure
[7] = target: monomeric streptavidin variant mSA2; test: fluorescent binding assay: labeled mSA2 in PBS applied to the protein monolayer, rinsed, fluorescence microscopy

Measured: binding

B1: rcSso7d.SA monolayer (designed binder)
chain: MGSIHHHHHHSSGLVPRGSHMCATVKFTYQGEEKQVDISKIKIVARDGQYIDFKYDEGGGAYGYGWVSEKDAPKELLQMLEKQ
modifications: EDC/NHS-activated protein coupled to an amine-functionalized silicon wafer
binds: all assays above

Results are given in words; binding and its absence hold for the method and conditions named. Binding calls can cover weak binding; strength is not graded here.
